According to the supplement of paper PMC12067093, “Discovery and optimisation of a covalent ligand for TRIM25 and its application to targeted protein ubiquitination” (Chemical Science, 2025):
The other results are listed elsewhere or left out.

By UniProt entry, the sequences of proteins in these tests, tags left out. Where a name states a change or a piece, a line headed by the entry shows the natural chain unless it says otherwise.
UniProt P23528, whole entry, looked up: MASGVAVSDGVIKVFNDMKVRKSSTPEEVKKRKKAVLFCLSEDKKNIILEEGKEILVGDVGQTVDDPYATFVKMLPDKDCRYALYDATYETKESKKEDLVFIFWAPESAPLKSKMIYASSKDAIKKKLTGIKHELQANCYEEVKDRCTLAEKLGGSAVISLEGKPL
UniProt Q2KHT3: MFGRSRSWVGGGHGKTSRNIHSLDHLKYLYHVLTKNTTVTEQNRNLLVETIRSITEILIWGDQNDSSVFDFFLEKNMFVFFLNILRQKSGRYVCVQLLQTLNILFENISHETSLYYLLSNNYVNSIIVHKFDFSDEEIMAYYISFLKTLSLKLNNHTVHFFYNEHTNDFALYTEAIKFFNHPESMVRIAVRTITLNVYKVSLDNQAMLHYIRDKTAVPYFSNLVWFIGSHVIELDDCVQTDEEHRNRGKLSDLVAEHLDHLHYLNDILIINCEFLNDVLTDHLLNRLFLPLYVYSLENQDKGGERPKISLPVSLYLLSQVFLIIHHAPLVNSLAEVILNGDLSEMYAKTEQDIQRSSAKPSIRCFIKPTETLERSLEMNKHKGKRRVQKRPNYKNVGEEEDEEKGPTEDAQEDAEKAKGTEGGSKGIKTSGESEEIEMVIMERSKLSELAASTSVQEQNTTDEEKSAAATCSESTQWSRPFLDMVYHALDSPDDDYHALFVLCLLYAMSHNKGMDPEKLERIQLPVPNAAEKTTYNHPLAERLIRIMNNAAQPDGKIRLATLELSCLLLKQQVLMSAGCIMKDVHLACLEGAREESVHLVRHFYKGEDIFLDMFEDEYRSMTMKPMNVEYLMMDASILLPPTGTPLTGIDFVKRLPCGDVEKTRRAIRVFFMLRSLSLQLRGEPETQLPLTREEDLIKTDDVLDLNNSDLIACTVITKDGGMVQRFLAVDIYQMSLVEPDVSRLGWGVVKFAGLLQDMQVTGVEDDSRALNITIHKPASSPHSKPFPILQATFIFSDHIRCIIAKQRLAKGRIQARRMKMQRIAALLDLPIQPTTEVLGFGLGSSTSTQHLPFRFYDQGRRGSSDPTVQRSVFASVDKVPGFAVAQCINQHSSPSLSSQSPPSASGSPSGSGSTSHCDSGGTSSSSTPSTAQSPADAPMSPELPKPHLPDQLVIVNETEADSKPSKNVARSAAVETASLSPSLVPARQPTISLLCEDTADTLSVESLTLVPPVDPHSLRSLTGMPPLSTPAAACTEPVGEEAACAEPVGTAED
UniProt Q9Y696: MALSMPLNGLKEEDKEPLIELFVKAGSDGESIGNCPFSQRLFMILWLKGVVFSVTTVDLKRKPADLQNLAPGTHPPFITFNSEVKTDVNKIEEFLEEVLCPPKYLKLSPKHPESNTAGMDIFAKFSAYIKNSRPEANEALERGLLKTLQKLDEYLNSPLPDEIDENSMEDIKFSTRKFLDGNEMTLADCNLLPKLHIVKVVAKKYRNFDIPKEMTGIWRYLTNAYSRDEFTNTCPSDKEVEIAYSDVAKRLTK
UniProt O75122: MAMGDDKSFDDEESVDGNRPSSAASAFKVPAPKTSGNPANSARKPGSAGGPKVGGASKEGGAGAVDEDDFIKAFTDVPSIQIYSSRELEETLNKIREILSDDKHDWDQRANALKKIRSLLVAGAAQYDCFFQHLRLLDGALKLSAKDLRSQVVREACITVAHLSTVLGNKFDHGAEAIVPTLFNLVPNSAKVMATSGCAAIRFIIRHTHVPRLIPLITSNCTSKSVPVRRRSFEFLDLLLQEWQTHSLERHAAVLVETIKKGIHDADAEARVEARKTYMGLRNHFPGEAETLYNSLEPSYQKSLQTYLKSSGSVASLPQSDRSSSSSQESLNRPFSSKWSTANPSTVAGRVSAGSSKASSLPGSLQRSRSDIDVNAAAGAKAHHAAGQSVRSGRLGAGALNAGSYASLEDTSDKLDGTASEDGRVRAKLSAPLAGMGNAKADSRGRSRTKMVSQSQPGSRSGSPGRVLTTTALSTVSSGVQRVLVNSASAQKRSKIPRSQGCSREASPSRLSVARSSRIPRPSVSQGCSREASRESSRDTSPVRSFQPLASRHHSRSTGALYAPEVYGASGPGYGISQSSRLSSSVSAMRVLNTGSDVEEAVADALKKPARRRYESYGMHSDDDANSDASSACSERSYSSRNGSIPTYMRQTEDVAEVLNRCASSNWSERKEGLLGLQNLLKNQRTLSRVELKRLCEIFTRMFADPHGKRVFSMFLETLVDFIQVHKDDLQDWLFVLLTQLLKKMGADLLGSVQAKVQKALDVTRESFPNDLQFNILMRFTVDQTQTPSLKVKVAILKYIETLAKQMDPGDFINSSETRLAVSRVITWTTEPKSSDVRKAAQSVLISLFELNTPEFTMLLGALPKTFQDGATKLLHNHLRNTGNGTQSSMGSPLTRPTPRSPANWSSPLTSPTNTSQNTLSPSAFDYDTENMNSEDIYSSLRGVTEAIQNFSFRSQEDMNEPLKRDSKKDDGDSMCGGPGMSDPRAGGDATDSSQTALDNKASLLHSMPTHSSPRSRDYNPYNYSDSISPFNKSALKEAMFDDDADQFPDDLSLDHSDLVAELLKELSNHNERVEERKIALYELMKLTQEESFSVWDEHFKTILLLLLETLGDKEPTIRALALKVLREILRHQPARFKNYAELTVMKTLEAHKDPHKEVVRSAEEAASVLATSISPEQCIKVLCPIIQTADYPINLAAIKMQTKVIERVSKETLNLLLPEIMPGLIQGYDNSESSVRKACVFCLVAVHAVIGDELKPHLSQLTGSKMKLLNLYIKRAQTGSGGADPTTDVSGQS
UniProt P0CG13, whole entry: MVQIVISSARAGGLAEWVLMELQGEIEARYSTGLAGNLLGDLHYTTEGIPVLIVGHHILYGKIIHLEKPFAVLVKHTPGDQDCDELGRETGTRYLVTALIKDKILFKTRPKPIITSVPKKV
UniProt O76071: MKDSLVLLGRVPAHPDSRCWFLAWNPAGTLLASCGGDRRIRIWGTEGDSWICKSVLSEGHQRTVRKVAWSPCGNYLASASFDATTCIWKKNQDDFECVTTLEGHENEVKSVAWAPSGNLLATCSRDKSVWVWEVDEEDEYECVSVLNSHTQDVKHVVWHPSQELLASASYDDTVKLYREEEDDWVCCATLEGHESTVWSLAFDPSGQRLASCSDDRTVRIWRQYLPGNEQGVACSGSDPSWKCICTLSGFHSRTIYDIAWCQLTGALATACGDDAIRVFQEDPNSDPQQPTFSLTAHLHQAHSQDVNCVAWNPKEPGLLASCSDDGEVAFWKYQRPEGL
UniProt Q00610: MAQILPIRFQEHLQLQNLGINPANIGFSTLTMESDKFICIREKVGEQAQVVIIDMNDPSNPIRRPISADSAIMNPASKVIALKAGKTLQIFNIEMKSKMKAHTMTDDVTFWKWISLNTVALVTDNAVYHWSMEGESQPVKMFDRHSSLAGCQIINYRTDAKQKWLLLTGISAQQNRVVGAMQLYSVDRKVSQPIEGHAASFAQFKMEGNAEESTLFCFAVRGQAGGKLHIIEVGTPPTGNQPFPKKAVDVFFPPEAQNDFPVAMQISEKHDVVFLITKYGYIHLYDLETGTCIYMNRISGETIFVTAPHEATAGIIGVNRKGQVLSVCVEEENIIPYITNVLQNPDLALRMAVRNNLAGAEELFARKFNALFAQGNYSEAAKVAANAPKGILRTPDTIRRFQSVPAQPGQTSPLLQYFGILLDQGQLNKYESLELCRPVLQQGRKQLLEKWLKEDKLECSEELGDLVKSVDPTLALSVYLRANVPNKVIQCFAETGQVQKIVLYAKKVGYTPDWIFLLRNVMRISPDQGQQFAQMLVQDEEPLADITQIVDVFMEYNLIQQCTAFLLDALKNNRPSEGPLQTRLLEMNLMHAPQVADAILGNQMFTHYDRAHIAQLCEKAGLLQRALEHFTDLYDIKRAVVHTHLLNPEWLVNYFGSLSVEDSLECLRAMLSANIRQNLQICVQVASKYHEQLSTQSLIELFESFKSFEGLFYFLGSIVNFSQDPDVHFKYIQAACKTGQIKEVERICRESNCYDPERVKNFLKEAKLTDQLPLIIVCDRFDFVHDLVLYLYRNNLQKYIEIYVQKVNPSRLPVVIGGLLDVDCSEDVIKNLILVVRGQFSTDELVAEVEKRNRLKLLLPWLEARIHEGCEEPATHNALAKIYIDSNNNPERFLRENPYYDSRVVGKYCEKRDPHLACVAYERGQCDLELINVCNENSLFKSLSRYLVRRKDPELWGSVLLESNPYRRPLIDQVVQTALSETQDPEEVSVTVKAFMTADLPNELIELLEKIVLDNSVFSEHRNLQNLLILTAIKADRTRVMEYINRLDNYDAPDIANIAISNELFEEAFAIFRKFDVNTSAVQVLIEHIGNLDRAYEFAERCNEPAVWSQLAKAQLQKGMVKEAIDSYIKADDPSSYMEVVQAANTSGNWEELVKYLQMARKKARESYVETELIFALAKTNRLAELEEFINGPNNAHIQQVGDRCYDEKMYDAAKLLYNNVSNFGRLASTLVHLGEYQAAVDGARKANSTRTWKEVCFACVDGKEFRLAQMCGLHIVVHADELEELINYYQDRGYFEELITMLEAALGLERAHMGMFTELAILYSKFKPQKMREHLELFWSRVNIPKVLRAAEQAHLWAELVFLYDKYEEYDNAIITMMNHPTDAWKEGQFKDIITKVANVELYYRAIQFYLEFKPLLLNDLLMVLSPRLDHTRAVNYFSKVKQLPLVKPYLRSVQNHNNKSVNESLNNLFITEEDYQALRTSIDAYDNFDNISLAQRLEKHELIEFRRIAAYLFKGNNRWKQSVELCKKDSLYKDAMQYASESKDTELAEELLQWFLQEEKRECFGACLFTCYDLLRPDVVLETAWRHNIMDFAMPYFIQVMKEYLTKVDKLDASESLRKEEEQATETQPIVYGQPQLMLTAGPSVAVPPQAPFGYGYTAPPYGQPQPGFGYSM
UniProt Q8WWK9: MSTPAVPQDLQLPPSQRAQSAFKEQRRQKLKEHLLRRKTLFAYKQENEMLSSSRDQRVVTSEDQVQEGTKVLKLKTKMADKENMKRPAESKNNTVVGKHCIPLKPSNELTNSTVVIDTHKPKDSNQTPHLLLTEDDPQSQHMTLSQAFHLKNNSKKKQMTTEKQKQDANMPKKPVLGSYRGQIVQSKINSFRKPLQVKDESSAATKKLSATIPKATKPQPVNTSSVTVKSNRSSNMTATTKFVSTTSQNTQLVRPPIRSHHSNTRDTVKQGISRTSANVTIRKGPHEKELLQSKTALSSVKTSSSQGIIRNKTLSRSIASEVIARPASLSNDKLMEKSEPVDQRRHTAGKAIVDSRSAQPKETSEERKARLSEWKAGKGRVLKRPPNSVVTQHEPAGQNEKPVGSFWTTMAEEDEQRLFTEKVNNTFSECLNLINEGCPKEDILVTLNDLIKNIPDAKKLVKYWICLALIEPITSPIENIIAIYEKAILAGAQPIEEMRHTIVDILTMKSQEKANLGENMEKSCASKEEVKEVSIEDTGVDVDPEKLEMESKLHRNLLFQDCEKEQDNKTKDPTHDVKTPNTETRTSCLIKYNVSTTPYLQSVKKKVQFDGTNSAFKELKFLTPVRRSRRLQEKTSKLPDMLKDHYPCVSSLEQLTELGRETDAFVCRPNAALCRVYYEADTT
UniProt P26374: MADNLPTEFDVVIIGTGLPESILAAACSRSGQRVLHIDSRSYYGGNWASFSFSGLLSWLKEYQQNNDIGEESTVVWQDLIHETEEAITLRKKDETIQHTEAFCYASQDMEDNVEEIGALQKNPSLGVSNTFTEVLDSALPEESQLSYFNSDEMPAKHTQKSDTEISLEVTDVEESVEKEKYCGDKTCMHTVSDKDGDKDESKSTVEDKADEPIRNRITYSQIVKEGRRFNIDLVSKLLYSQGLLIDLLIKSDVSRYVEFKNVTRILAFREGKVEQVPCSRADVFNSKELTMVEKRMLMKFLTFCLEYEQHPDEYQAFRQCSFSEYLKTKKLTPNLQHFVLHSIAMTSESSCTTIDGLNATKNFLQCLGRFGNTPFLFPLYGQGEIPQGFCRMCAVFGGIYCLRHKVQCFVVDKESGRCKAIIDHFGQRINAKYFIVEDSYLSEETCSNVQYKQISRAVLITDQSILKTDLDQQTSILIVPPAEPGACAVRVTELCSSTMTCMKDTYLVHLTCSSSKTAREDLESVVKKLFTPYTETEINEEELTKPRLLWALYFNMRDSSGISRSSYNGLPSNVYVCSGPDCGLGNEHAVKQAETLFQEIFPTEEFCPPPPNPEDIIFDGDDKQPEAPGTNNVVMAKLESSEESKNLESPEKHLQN
UniProt Q9UHD1: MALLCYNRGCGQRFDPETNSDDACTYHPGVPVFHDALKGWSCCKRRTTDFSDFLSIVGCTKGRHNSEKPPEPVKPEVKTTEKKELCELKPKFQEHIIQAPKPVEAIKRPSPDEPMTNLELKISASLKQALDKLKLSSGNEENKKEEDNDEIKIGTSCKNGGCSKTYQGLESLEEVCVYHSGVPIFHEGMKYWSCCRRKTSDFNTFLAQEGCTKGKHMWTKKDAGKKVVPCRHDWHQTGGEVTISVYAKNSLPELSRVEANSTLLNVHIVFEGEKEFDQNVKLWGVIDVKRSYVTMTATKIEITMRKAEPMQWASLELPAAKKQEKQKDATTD

Compound: Cc1cc(ccc1-c1ccccc1)C(=O)N1CCCN(CC1)C(=O)CCl [compound 10]
Assay: probe-labelled cysteine peptide fold change vs DMSO (competition) (log2 fold change); higher = less target engagement (more negative = stronger competition)
Details: THP-1, incubation time: 4 h
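Note: competitive profiling in live THP-1 cells: cysteine peptides tagged with an iodoacetamide desthiobiotin (IA-DTB) probe, intensity after compound treatment relative to DMSO-treated cells.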

Target | probe-labelled cysteine peptide fold change (10 µM) | probe-labelled cysteine peptide fold change (50 µM)
CKAP5_Q14008_1795_ILDHLTMIDNKNESELEAHLCR (UniProt Q14008) | -0.164 | -0.477
CFL1_P23528_39_AVLFCLSEDK (UniProt P23528) | 0.0825 | 0.0485
CHD6_Q8TD26_975_FCEEDIDQILQR (UniProt Q8TD26) | -0.0469 | 0.164
CLEC16A_Q2KHT3_588_DVHLACLEGAREESVHLVR (UniProt Q2KHT3) | -0.223 | -0.195
CLIC4_Q9Y696_35_AGSDGESIGNCPFSQR (UniProt Q9Y696) | -0.404 | -0.151
CLASP2_O75122_129_SLLVAGAAQYDCFFQHLR (UniProt O75122) | -0.366 | -0.222
CHTF8_P0CG13_83_HTPGDQDCDELGR (UniProt P0CG13) | 0.278 | 0.369
CLIP1_P30622_111_YFQCEPLK (UniProt P30622) | 0.222 | 0.0162
CHAF1A_Q13111_710_VLQQFAACFLETLPAQEEQTPK (UniProt Q13111) | 0.175 | 0.0656
CMAS_Q8NFW8_394_VGLSGAPADACSTAQK (UniProt Q8NFW8) | -0.0398 | -0.128
CHI3L1_P36222_300_EAGTLAYYEICDFLR (UniProt P36222) | -0.118 | -0.107
CIAO1_O76071_97_NQDDFECVTTLEGHENEVK (UniProt O76071) | -0.109 | -0.12
CLPB_Q9H078_267_GCTALHYAVLADDYR (UniProt Q9H078) | 0.0157 | 0.0121
CLTC_Q00610_1102_CNEPAVWSQLAK (UniProt Q00610) | 0.143 | 0.0265
CKAP2_Q8WWK9_674_ETDAFVCRPNAALCR (UniProt Q8WWK9) | -0.078 | 0.116
CHD4_Q14839_1018+1019_CCNHPYLFPVAAMEAPK (UniProt Q14839) | -0.0328 | -0.421
CKAP2_Q8WWK9_100_HCIPLKPSNELTNSTVVIDTHKPK (UniProt Q8WWK9) | 0.0423 | -0.254
CLIC1_O00299_178_KFLDGNELTLADCNLLPK (UniProt O00299) | -0.0831 | -0.362
CHKB_Q9Y259_17_AAEATAVAGSGAVGGCLAK (UniProt Q9Y259) | -0.32 | -0.523
CHML_P26374_390_FGNTPFLFPLYGQGEIPQGFCR (UniProt P26374) | 0.0289 | 0.362
CLPB_Q9H078_647_VVNQLAAAYEQDLLPGGCTLR (UniProt Q9H078) | 0.223 | 0.42
CLASP2_O75122_502_SQGCSR (UniProt O75122) | -0.158 | -0.69
CHURC1_Q8WUH1_88_SLKEEDGEEIVTYDHLCK (UniProt Q8WUH1) | 0.0647 | -0.373
CHORDC1_Q9UHD1_5_ALLCYNR (UniProt Q9UHD1) | -0.168 | 0.348
CHD8_Q9HCK8_1947_HGVSQTDCNIMQDPDFSFLAAR (UniProt Q9HCK8) | -0.33 | -0.00258
CLTC_Q00610_1573_RECFGACLFTCYDLLRPDVVLETAWR (UniProt Q00610) | 0.384 | 0.276
CFL2_Q9Y281_80_LLPLNDCR (UniProt Q9Y281) | -0.0257 | 0.119
CLASP1_Q7Z460_1212_ECDIVSR (UniProt Q7Z460) | -0.0347 | -0.209

Part of the list above, as tab-separated lines.
Target	probe-labelled cysteine peptide fold change (10 µM)	probe-labelled cysteine peptide fold change (50 µM)
CLEC16A_Q2KHT3_588_DVHLACLEGAREESVHLVR (UniProt Q2KHT3)	-0.223	-0.195
CLIC4_Q9Y696_35_AGSDGESIGNCPFSQR (UniProt Q9Y696)	-0.404	-0.151
CIAO1_O76071_97_NQDDFECVTTLEGHENEVK (UniProt O76071)	-0.109	-0.12
CLIC1_O00299_178_KFLDGNELTLADCNLLPK (UniProt O00299)	-0.0831	-0.362
CHML_P26374_390_FGNTPFLFPLYGQGEIPQGFCR (UniProt P26374)	0.0289	0.362
CHORDC1_Q9UHD1_5_ALLCYNR (UniProt Q9UHD1)	-0.168	0.348
